# Assay results: PubChem BioAssay AID493014 (National Center for Advancing Translational Sciences (NCATS), 2011)
# The list shows a part of the results. The main result of the screen is listed elsewhere. These columns were measured beside it and carry no call. Most of these compounds were active or inconclusive in the main read-out, so they are no random draw. The note in brackets gives the kind of curve behind each potency; many fits are weak.
# Test: qHTS Assay to Find Inhibitors of Chronic Active B-Cell Receptor Signaling
# Details: ABC-DLBCL IkBa-CBG/CBR reporter, luminescence ratio (green luciferase fused to IkBa over red control in TMD8 lymphoma cells), 4 h
# Method in brief: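 Cell line TMD8 (human ABC DLBCL), stably expressing tet-inducible CBG68-IkBa fusion and CBR; IMDM/0.5% FBS; cpd up to 46 uM; dox induction, 4 h, 37C/5% CO2; dual luminescence; green/red ratio; MG132 control.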
# [1] = measured here: CBR red luminescence, cell number
# [2] = measured here: IkBa-CBG green luminescence
compound,measurement,setting,value
CCOCCOc1cccc(C(=O)NC(c2ccccc2)c2ccccc2)c1,AC50,[1],"10 µM [rising, partial curve, poor fit]"
COc1ccc(-c2noc(CSc3nc(N)c(-c4ccccc4)c(=O)[nH]3)n2)cc1,AC50,[2],"4.11 µM [falling, partial curve]"
O=C1C=C(c2ccc3[nH]ccc3c2)C[C@@H](c2ccc(Cl)cc2)C1,AC50,[2],"6.51 µM [rising, partial curve, poor fit]"
O=C(Nc1cccc(C(F)(F)F)c1)C(Sc1n[nH]c(=O)[nH]c1=O)c1ccccc1 (configuration not stated),AC50,[1],"2.51 µM [falling, full curve]"
C(=C\c1ccccc1)/CSc1nnc(-c2ccccn2)n1Cc1ccco1,AC50,[1],"29.1 µM [rising, single point]"
same,AC50,[2],"18.4 µM [falling, single point]"
CC(C)P(=O)(c1cccc(C(=O)O)c1)C(C)C,AC50,[1],"7.31 µM [rising, partial curve, poor fit]"
Cc1ccc(N=c2c([N+](=O)[O-])nn(-c3ccccc3)n2O)c(C)c1,AC50,[1],"0.58 µM [falling, full curve, poor fit]"
C/C(=N\NC(=O)c1ccccc1)c1ccc(-n2ccnc2)cc1,AC50,[1],"9.2 µM [falling, partial curve]"
CCOC(=O)c1csc(NC(=O)CSc2nnnn2-c2cccc(OC)c2)n1,AC50,[1],"0.00517 µM [falling, full curve, poor fit]"
Cc1ccc(Nc2nc(N)c([N+](=O)[O-])c(NCCO)n2)cc1,AC50,[1],"0.355 µM [falling, full curve, poor fit]"
COc1ccc(CN2C(=O)CNC2=S)cc1,AC50,[1],"3.16 µM [falling, partial curve, poor fit]"
O=c1c2cc(Cl)ccc2[nH]c(=S)n1Cc1cccs1,AC50,[1],"29.1 µM [rising, single point]"
CCOC(=O)c1sc(NS(=O)(=O)c2ccc(NC(C)=O)cc2)nc1C,AC50,[1],"6.51 µM [falling, single point]"
COCCCNC(=O)c1sc2ncnc(N3CCc4ccccc4C3)c2c1C,AC50,[1],"0.116 µM [falling, full curve, poor fit]"
O=C(c1cc2ccccc2oc1=O)N1CCOCC1,AC50,[1],"35.5 µM [falling, single point]"
CCOC(=O)C1CCCN(C(=O)c2sc3nc(-c4ccccc4)cn3c2C)C1 (configuration not stated),AC50,[1],"6.31 µM [falling, partial curve, poor fit]"
C=CCn1c(C2CCCCC2)n[nH]c1=S,AC50,[1],"0.562 µM [rising, full curve, poor fit]"
Cc1ccc(-c2ccccc2)n1-c1ccc(C(=O)O)cc1,AC50,[1],"16.4 µM [falling, partial curve]"
COc1ccc(NC(=S)N2CCN(C(c3ccccc3)c3ccccc3)CC2)cc1OC,AC50,[1],"36.6 µM [falling, partial curve, poor fit]"
CCc1nnc(NC(=O)C2c3ccccc3Oc3ccccc32)s1,AC50,[1],"0.0116 µM [falling, full curve, poor fit]"
Clc1cccc2sc(N3CCCCC3)nc12,AC50,[1],"3.26 µM [rising, partial curve, poor fit]"
COc1ccc(-c2csc(NC(=O)C3=COCCO3)n2)c(OC)c1,AC50,[1],"0.82 µM [rising, full curve]"
Cc1nc2nc(-c3ccc(Cl)cc3)[nH]n2c(=O)c1Cc1ccccc1,AC50,[1],"0.731 µM [falling, full curve]"
COC(=O)c1ccc2c(=O)n(CCCCCC(=O)NCCc3ccc(Cl)cc3)c(=O)[nH]c2c1,AC50,[1],"5.01 µM [falling, partial curve, poor fit]"
CCNc1ccc(C(=O)O)cc1N,AC50,[1],"8.2 µM [falling, partial curve]"
O=C(NC(=S)NC(c1ccccc1)c1ccncc1)c1ccccc1 (configuration not stated),AC50,[1],"29.1 µM [falling, single point]"
CCOc1c(Br)cc(C(N)=O)cc1OC,AC50,[1],"31.6 µM [rising, single point]"
CCOc1ccc(S(=O)(=O)Nc2ccc(C(=O)NN)cc2)cc1,AC50,[1],"12.6 µM [falling, partial curve, poor fit]"
CC(=O)c1c(C)[nH]c(C(=O)OCc2nc3ccsc3c(=O)[nH]2)c1C,AC50,[1],"8.2 µM [rising, partial curve, poor fit]"
CCOC(=O)c1cccc(NC(=O)CN(c2ccc(C)cc2)S(=O)(=O)c2c(C)n[nH]c2C)c1,AC50,[1],"5.62 µM [falling, partial curve]"
CS(=O)(=O)N1CCc2cc(C(=O)Nc3cccc([N+](=O)[O-])c3)ccc21,AC50,[1],"0.794 µM [rising, full curve, poor fit]"
Cc1[nH]nc2c1C(C1CC=CCC1)C(C#N)=C(N)O2 (configuration not stated),AC50,[1],"3.26 µM [falling, partial curve]"
O=C(Cc1ccccc1)NNC(=S)NC(=O)c1cccs1,AC50,[1],"7.08 µM [falling, partial curve]"
CCN(c1cccc(C)c1)S(=O)(=O)c1cc(CN2C(=O)c3cccnc3C2=O)ccc1OC,AC50,[1],"5.62 µM [falling, full curve, poor fit]"
Cc1ccc(-c2nc(CS(=O)(=O)CC(=O)NC3CCC(C)CC3)c(C)o2)cc1 (configuration not stated),AC50,[1],"35.5 µM [falling, single point]"
COc1c(Cl)ccc(Cl)c1C(=O)NC(=O)Nc1nc(C)cc(C)n1,AC50,[1],"0.501 µM [falling, full curve]"
CCN1CCCC1CNC(=O)c1cc2c(C)nc3ccccc3c2o1 (configuration not stated),AC50,[1],"7.94 µM [falling, partial curve]"
O=C1CCCC2=C1C(c1cccc(O)c1)c1c(ccc3ncccc13)N2 (configuration not stated),AC50,[2],"10 µM [falling, partial curve, poor fit]"
O/N=C/c1ccc(OCc2ccccc2F)c(Cl)c1,AC50,[1],"1.46 µM [rising, full curve, poor fit]"
Cc1ccccc1OCc1nc2ccccc2c(=O)n1/N=C/c1cn[nH]c1-c1ccccc1,AC50,[1],"23.1 µM [falling, partial curve]"
O=[N+]([O-])c1cc(C(F)(F)F)cc([N+](=O)[O-])c1NCCNC(=S)Nc1cccc(F)c1,AC50,[1],"35.5 µM [falling, single point]"
COc1ccc(CC(=O)NCc2n[nH]c(=S)n2-c2ccccc2OC)cc1,AC50,[1],"3.16 µM [falling, full curve, poor fit]"
COc1ccccc1N1CCN(C(c2cccs2)C(C)NC(=O)c2ccco2)CC1 (configuration not stated),AC50,[1],"0.282 µM [rising, full curve, poor fit]"
C=CCNC(=O)c1ccc(C)cc1Cl,AC50,[1],"3.55 µM [rising, full curve, poor fit]"
Cc1cccc2sc(NC(=O)c3ccc(Cl)s3)nc12,AC50,[1],"4.11 µM [falling, partial curve]"
COC(=O)c1ccc(Oc2ccc3nnc(C)n3n2)cc1,AC50,[1],"12.6 µM [rising, single point]"
CN1C(c2ccccc2)CC(=NO)CC1c1ccccc1 (configuration not stated),AC50,[1],"1.78 µM [rising, full curve, poor fit]"
CC(C)CNC(=O)c1c(N)n(/N=C/c2cccnc2)c2nc3ccccc3nc12,AC50,[1],"0.461 µM [falling, full curve, poor fit]"
COc1ccc(-n2nc3cc(N)c(Br)cc3n2)cc1,AC50,[1],"8.91 µM [rising, partial curve]"
O=C1NC(Cc2ccccc2)c2nc3cc(F)ccc3c(=O)n2-c2ccc(Cl)cc21 (configuration not stated),AC50,[1],"23.1 µM [falling, partial curve, poor fit]"
COc1cc(OC)c(C2N(C)c3ccccc3N2C)cc1OC,AC50,[1],"0.517 µM [falling, full curve, poor fit]"
CCc1cc(=O)oc2cc(C)cc(O)c12,AC50,[1],"2.31 µM [rising, full curve]"
same,AC50,[2],"5.17 µM [falling, partial curve, poor fit]"
Cn1nnnc1Sc1ncnc2scc(-c3ccccc3Br)c12,AC50,[1],"14.6 µM [falling, partial curve, poor fit]"
Nc1ncn(CC(=O)c2ccccc2)n1,AC50,[1],"35.5 µM [rising, single point]"
O=C(CCn1c(=O)[nH]c2ccsc2c1=O)Nc1ccc(F)c(F)c1,AC50,[1],"1.41 µM [falling, full curve, poor fit]"
CCOc1ccc(NC(=O)c2ccccc2OCC(=O)c2ccccc2)cc1,AC50,[1],"1.3 µM [falling, full curve, poor fit]"
CCn1cc([N+](=O)[O-])c(C(=O)Nc2nc(-c3ccc(C)c(C)c3)c(C)s2)n1,AC50,[1],"4.47 µM [falling, full curve, poor fit]"
COCCN(CCOC)C(=O)N1CCOCC1,AC50,[1],"17.8 µM [falling, single point]"
O=C(O)c1cc(N/N=C/C(Cl)=C/c2ccccc2)ccc1Cl,AC50,[1],"6.31 µM [falling, partial curve]"
CCOc1ncccc1C(=O)OCC(=O)Nc1ccc2c(c1)CCC2,AC50,[1],"16.4 µM [falling, partial curve]"
Cc1ccccc1/C=N/Nc1ccc(Cl)nn1,AC50,[1],"35.5 µM [rising, partial curve, poor fit]"
COC(=O)c1sccc1NC(=O)CSc1ccc(Cl)cc1,AC50,[1],"6.31 µM [falling, partial curve]"
CCOC(=O)C1=Nc2ccccc2C1=[N+]=[N-],AC50,[1],"4.11 µM [rising, partial curve, poor fit]"
C/C=C/c1ccc(OCCn2nnc3ccccc32)c(OC)c1,AC50,[1],"7.08 µM [rising, partial curve, poor fit]"
CSCCC(NC(=O)COc1ccccc1)C(=O)N(C)CC(=O)Nc1ccc(Cl)cc1 (configuration not stated),AC50,[1],"29.1 µM [falling, single point]"

# An excerpt of these results, tab-delimited.
compound	measurement	setting	value
CCc1cc(=O)oc2cc(C)cc(O)c12	AC50	[1]	2.31 µM [rising, full curve]
Nc1ncn(CC(=O)c2ccccc2)n1	AC50	[1]	35.5 µM [rising, single point]

# Reprinted at random: three entries already listed.
compound,measurement,setting,value
Cc1ccccc1/C=N/Nc1ccc(Cl)nn1,AC50,[1],"35.5 µM [rising, partial curve, poor fit]"
O=C1CCCC2=C1C(c1cccc(O)c1)c1c(ccc3ncccc13)N2 (configuration not stated),AC50,[2],"10 µM [falling, partial curve, poor fit]"
COC(=O)c1ccc(Oc2ccc3nnc(C)n3n2)cc1,AC50,[1],"12.6 µM [rising, single point]"
